The supplement of paper PMC12819154, “High-throughput peptide-centric local stability assay extends protein–ligand identification to membrane proteins, tissues and bacteria” (Nature Structural & Molecular Biology, 2025)
The list shows a part of the results. Most entries show no effect beyond the scatter of the controls.

Protein sequences, listed by entry. Tags and fused reporters are not part of them. Lines headed by an entry give the natural chain unless they say otherwise; changes in a name come on top.
UniProt P97820: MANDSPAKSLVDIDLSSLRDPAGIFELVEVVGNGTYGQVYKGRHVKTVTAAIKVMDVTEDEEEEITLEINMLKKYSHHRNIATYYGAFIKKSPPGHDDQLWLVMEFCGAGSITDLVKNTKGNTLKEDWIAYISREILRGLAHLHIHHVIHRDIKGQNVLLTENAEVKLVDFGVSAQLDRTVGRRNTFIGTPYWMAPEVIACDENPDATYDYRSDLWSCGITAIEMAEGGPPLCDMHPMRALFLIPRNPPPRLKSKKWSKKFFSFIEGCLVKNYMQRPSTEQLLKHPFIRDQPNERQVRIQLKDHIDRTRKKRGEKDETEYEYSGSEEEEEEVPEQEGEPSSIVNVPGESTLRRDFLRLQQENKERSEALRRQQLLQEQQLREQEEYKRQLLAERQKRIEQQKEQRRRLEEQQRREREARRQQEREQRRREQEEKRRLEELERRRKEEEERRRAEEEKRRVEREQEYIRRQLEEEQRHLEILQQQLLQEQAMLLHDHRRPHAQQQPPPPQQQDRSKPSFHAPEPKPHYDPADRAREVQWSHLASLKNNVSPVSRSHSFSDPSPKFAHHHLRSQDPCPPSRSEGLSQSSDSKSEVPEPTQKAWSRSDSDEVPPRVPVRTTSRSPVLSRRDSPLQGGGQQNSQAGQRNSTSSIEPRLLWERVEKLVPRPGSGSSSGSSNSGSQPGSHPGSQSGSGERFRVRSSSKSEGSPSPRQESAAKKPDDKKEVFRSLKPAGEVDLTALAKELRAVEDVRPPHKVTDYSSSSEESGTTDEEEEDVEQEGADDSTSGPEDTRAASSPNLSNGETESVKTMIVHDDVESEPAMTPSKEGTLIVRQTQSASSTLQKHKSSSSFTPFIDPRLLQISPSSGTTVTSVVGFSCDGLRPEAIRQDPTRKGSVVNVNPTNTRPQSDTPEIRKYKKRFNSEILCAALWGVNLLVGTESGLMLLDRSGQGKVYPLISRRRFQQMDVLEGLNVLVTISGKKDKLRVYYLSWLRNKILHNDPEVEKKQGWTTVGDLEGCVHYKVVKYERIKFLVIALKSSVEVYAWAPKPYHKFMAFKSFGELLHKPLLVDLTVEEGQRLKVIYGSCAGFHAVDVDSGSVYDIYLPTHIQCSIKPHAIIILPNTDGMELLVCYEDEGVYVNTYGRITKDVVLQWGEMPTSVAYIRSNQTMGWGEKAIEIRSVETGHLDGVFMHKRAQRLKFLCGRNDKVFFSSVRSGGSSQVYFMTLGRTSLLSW
UniProt P79457, whole entry: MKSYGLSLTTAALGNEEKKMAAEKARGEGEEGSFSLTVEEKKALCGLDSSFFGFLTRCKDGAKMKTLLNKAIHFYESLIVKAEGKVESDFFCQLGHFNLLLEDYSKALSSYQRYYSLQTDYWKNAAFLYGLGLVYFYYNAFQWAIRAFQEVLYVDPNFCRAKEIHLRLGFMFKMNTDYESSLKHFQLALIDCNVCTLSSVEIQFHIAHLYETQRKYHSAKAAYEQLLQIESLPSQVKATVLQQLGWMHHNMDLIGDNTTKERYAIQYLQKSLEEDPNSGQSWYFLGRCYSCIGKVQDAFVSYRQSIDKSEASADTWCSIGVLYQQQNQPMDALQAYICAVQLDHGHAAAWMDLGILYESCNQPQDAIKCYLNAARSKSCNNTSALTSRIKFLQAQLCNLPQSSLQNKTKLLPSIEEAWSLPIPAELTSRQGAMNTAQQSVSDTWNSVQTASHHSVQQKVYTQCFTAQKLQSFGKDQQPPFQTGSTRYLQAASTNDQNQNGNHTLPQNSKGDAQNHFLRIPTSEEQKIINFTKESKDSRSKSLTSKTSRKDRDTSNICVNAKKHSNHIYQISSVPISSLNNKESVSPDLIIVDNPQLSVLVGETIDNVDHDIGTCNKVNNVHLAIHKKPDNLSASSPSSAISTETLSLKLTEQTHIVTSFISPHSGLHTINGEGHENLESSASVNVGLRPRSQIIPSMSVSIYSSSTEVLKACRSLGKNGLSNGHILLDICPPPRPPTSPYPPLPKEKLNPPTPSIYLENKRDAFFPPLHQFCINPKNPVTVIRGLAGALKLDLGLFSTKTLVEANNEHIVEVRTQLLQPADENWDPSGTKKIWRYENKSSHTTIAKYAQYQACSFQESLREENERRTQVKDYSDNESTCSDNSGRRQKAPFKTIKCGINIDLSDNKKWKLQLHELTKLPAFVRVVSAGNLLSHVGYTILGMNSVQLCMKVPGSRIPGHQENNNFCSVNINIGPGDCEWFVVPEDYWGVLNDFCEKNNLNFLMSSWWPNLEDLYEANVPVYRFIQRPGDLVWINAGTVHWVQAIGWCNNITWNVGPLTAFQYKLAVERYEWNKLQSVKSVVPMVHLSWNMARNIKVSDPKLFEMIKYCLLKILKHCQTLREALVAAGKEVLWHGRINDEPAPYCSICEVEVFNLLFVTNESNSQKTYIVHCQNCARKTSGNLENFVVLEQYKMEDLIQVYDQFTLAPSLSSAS
UniProt P70339: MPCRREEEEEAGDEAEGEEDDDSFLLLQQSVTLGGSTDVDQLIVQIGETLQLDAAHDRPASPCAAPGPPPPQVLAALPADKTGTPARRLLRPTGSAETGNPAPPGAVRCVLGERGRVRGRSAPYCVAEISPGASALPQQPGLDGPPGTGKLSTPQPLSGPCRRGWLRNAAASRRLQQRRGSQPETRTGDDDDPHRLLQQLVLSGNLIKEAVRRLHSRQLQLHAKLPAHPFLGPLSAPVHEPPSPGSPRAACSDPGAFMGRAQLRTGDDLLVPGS
UniProt P97384, whole entry: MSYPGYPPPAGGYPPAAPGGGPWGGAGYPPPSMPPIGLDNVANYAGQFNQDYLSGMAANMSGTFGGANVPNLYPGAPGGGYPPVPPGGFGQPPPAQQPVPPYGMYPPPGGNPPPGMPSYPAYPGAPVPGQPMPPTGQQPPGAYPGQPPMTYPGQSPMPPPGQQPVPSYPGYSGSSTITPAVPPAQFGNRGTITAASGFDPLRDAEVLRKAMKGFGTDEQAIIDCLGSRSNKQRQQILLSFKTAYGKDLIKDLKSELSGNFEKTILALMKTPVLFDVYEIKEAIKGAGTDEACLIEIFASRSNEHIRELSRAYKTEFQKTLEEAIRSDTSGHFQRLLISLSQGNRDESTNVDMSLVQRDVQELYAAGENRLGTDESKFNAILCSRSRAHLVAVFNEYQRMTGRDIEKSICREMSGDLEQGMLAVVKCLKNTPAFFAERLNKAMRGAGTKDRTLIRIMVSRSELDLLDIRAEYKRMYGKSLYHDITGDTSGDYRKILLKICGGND
UniProt P97366: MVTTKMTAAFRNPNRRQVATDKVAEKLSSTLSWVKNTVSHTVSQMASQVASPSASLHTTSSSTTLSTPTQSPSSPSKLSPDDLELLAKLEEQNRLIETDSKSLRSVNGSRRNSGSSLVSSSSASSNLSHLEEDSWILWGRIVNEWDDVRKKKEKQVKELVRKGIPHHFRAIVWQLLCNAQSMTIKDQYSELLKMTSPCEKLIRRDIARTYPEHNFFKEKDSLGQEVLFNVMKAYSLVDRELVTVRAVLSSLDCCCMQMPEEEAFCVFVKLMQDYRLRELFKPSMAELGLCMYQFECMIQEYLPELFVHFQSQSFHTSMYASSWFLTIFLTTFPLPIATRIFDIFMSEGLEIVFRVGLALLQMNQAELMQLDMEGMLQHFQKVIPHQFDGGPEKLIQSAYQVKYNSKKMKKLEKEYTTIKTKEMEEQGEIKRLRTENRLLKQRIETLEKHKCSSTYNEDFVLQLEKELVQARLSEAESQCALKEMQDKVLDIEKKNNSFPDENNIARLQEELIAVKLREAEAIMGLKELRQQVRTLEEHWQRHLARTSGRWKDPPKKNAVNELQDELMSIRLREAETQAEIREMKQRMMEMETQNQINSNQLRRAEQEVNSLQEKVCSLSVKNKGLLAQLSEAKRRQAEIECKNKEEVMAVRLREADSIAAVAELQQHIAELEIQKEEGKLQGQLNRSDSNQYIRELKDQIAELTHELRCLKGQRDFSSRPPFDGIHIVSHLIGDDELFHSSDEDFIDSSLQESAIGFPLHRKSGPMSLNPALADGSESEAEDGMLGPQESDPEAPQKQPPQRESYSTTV
UniProt Q01237: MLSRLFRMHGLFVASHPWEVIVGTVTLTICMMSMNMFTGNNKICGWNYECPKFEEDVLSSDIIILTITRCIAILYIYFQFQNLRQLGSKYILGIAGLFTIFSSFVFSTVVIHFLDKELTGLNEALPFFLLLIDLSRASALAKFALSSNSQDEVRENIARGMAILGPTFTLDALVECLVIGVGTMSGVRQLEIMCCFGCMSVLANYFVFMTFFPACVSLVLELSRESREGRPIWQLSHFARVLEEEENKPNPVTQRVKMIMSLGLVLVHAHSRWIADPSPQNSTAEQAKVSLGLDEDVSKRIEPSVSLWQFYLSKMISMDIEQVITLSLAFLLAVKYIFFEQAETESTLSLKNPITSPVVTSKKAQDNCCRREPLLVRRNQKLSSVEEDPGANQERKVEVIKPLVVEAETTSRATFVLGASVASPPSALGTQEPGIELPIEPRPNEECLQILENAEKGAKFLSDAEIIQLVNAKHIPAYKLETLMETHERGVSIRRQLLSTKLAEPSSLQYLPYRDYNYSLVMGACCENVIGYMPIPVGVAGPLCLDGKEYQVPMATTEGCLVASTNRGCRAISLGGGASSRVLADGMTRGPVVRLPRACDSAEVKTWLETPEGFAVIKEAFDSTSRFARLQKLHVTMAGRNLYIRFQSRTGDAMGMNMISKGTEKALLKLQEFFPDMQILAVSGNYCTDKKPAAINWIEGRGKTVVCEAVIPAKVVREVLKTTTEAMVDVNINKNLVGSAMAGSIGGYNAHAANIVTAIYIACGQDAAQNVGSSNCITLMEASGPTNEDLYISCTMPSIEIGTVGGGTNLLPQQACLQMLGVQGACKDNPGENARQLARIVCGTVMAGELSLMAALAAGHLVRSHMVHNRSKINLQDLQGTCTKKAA
UniProt P97717, whole entry: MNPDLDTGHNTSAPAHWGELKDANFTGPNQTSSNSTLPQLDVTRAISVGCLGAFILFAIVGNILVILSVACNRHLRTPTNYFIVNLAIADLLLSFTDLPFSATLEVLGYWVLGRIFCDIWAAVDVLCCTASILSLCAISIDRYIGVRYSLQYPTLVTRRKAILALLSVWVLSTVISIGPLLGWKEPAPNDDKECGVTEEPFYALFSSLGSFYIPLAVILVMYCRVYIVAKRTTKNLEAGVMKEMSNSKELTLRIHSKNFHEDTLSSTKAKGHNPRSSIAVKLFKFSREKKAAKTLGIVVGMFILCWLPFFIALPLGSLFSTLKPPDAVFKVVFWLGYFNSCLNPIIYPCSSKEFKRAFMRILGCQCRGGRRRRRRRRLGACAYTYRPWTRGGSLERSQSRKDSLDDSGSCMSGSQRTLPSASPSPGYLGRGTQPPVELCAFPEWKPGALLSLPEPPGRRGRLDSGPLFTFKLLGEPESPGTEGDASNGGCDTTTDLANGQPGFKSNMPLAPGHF
UniProt P97367: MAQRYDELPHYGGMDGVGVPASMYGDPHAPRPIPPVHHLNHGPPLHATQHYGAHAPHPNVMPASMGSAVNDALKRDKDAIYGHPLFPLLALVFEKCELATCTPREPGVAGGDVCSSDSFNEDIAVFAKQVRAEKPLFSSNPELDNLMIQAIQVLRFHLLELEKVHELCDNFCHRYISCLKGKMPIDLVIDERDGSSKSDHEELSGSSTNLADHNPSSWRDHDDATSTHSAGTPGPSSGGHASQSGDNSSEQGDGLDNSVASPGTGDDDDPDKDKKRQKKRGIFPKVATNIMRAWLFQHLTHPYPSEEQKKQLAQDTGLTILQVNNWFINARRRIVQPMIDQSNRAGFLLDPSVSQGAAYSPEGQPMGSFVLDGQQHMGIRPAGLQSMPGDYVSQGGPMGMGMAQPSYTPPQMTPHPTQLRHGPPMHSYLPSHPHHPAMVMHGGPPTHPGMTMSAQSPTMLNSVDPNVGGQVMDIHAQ
UniProt P70452: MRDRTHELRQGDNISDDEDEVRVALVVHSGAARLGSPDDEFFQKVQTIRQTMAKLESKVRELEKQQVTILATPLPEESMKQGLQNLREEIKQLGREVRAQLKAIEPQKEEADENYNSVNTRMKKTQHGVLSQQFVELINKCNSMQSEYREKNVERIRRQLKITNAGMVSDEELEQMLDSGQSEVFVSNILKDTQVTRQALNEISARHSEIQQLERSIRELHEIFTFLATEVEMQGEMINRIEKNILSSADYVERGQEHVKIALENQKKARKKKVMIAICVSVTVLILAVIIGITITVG
UniProt P97762: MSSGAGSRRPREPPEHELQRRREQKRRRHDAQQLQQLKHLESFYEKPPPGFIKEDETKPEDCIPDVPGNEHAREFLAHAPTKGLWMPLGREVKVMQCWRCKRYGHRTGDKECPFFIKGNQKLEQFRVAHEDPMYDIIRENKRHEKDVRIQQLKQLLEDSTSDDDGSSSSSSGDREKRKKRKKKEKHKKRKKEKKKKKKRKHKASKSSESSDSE

The targets below were run with CN[C@@H]1C[C@H]2O[C@@](C)([C@@H]1OC)n1c3ccccc3c3c4c(c5c6ccccc6n2c5c31)C(=O)NC4 [staurosporine] (assay: log2 fold change of tryptic peptide abundance, ligand vs vehicle (limited proteolysis) (log2 ratio); higher = more trypsin-susceptible (destabilized)). Details: ligand concentration: 20 uM; sample: mouse liver crude lysate; replicate design: treated separately.

Row | Target | log2 fold change
1 | UniProt P97820 (peptide sequence: SKPSFHAPEPKPHYDPADR, peptide start residue: 514) | 0.494
2 | UniProt P79457 (peptide sequence: VYTQCFTAQK, peptide start residue: 459) | 0.373
3 | UniProt P70339 (peptide sequence: LLRPTGSAETGNPAPPGAVR, peptide start residue: 89) | -0.36
4 | UniProt P63248 (peptide sequence: LAGLDINKTEGEDDGQR, peptide start residue: 42) | 0.184
5 | UniProt P97384 (peptide sequence: SELDLLDIR, peptide start residue: 460) | -0.568
6 | UniProt P97366 (peptide sequence: NKEEVMAVR, peptide start residue: 643) | -0.231
7 | UniProt Q01237 (peptide sequence: LETLMETHER, peptide start residue: 480) | 0.299
8 | UniProt P97717 (peptide sequence: SNMPLAPGHF, peptide start residue: 505) | -0.188
9 | UniProt P97367 (peptide sequence: IVQPMIDQSNR, peptide start residue: 334) | -0.0528
10 | UniProt P70452 (peptide sequence: KTQHGVLSQQFVELINK, peptide start residue: 124) | -0.215
11 | UniProt P97762 (peptide sequence: HDAQQLQQLK, peptide start residue: 29) | -0.245
